The results in this text go back to patent publication US12258321B1 (University of Jeddah, priority 2024, dated 2025).

The assay has as its system MCF-7 cells. Kind of assay: MTT cytotoxicity test on MCF-7 breast cancer cells. The format is cell-based. The note with it: Homo sapiens, MCF7, 24 h, read-out: IC50, cytotoxic activity against MCF7 breast cancer cells. The procedure: The MCF-7 breast cancer cell lines were purchased from VACSERA Tissue Culture Unit (Giza, Egypt). MCF-7 cells were cultured in RPMI medium supplemented with 2 mM glutamine and 10% fetal bovine serum. Both cell cultures included […] streptomycin and 100 units/ml penicillin and were kept in a humidified atmosphere with 5% CO2 at 37° C.
As an indicator of cytotoxic activity, cell viability was determined using the MTT [(3-(4,5-dimethylthiazol-2-yl)-2,5-diphenyltetrazolium bromide] assay according to the instructions provided by the manufacturer. Briefly, MCF-7 cells were plated at 5×10^3 cells/well in 96-well plates. Cells were treated with test compounds or Staurosporine at 0.01, 0.1, 1.0, 10 and 100 M concentrations for 24 h. The plates were read at 570 nm. Denoted data are the means of the three experiments. IC50 values were calculated by nonlinear regression analysis using Graph Pad Prism version 5 for windows (Graph Pad Inc., CA, USA). All experiments were performed in triplicate. Data were given as mean±SD.

Take `CN[C@@H]1C[C@H]2O[C@@](C)([C@@H]1OC)n1c3ccccc3c3c4c(c5c6ccccc6n2c5c31)C(=O)NC4` [Staurosporine, reference compound]: the IC50 was 5.69 µM.
